Data as given in PMC10052474, “Carbon Fixation in the Chemolithoautotrophic Bacterium Aquifex aeolicus Involves Two Low-Potential Ferredoxins as Partners of the PFOR and OGOR Enzymes” (Life, 2023).
Results are given in words; binding and its absence hold for the method and conditions named. In cells and extracts the contact can be indirect. A result given as binding can be weak or reduced; the word gives no strength. Values belong to the binder of their own block, whether it stands above or below them.

Biological target: recombinant Fd7 (Fd7Strep), Aquifex aeolicus ferredoxin 7 with a C-terminal Strep-tag II (Aquifex aeolicus)
Experiment: pull-down; purified Fd7Strep (450 µg) incubated 1 h at room temperature, semi-anaerobic, with A. aeolicus soluble extract and avidin; 0.15 M NaCl, 0.1 M Tris-HCl pH 8; captured on a Strep-Tactin column and eluted; eluted proteins identified by mass spectrometry of bands of a denaturing gel and by in-gel PFOR and OGOR activity and mass spectrometry on a BN gel; control without Fd7Strep; only the target purified

binding: binds
B1: uncharacterized protein Aq_1163 of Aquifex aeolicus (protein, UniProt O67227 1-125)
chain: MWARVLKLICEELGDRELFLLEADKDLKWFGAPVKEVCEKVNFDARNSEIAQTVKASLQEVQGEGWIVYVDPFNNFADIYEANKPRYRNRWNQERPYDISETRFRVGFFPSREEAYDSSSRFQRE

binding: binds
B2: reverse gyrase 2 of Aquifex aeolicus (enzyme, UniProt O67226 1-1159)
chain: MALELIERGCPNCGGVISSDRLEKGLPCSKCLPKPTEEKVCDALEELKTLKYLKPFCDTDKSLERFINFFEKAVGAKPWSLQRVWAKRVFMNQSFAIVAPTGVGKTTFGLVMSLFLKGRVLAIFPTRLLAQQAGDRLSELAQKVGVNKKILIYQSKKNIREQFLNGDWDILLGTNMFLHKNFENLINFKFKLIFIDDIDSFLKRGKNVDYLFKLLGFSGEEIKLALKENKTQRDYDRLARIRKRKRDTVLIVSSATLKPRGKRAYLFRNLLGFDVQKAITTLRNIVDVAEPVKDLEEALEKSVELIKKLGKGGLVYLSVFYGKDKVQEVKEFYRKHGINAVSYLDYKPEELYQILEKGEFDVAVGISHITNPLVRGIDLPHIIRYAVFLDPPKHVFPTELTLSPPLLHGLLLTLLNLFEGDDRLKAIQYVMYLKRYLTLREEQLDNYPRIKERVEEIKNFLENYLKDENFLKKIKESEDISLVPKEGKLYIVVGDANSYIQASGRTSRFIAGGMTKGLSVVYYSDPKAFYSLKKRLALYYMTQEIEFKRLSEVDLNKLIKEIDEDRKRAREILQGKGVAQIKDLFKTTLVIVESPNKARTIAGFFGKPQMRLVEDSVAYEVPLGDRLLVITASLGHVLDLVTDKGFFGVLDDTYPYLPVYDTIKICRETHEQHTEYEYLKKRCKGKIEDKLEIIKGVREVSYEVDEVFIATDPDAEGEKIGYDLYLLSKPFNFNIKRAEFHEVTPKAFREAIQNPREVDLNLVKAQLVRRILDRWVGFTLSHILWDAFGKKWLSAGRVQTPVLGWVIKRYEESKEKKGEILLHVNDFPLKIEIEDLMFAKEIFKDLELADISLSNPQEEEKRPLPPYTTDTVLEDANEKLHLSAHKTMKILQELFEAGYITYHRTDSTRVSDAGKYLVAKPYITKMFGEEYFYPRSWGEGGAHECIRPTRPLEPKDLEFMITAGIAEFEDPENALKVYELIFKRFMASQMRPAKVITEEIILKLPYFEWKERVVTEVKEHGFDLMYPTFKVFPKKEKLEITHKEFREVPKVYPYTQGTLIQEMKRRGLGRPSTYAQIVQTLLERHYVVEEKGFLIPTDLGREVYEYLTKHFPEWTSEELTRKLEEAMDKIERGELDYMEVLKEVHRIKVLLKEEKAFKK
